The target in test [1] is HA-tagged GRIA1, human, full-length, HA-tag inserted after the signal peptide (human) (UniProt P42261). Description: co-IP; extracts of HEK293T cells co-transfected with HA-tagged Gria1/GRIA1 and Myc-tagged Prrt2 or Flag-tagged forms of PRRT2, lysed after 48 h; precipitated with HA antibody overnight at 4 °C, Protein A/G PLUS-Agarose 3 h; western blot.
Test [2] has as its target HA-tagged Gria1, mouse, full-length, HA-tag after the C-terminal (mouse) (UniProt P23818). Described as above.
For test [3], the target named is Gria1, endogenous in mouse brain extract (mouse (endogenous in mouse brain)) (UniProt P23818). Nature of the test: co-IP; mouse brain extract, endogenous proteins; precipitated with anti-Gria1 antibody (normal IgG as control) overnight at 4 °C, Protein A/G PLUS-Agarose 3 h; western blot.

Sequences of proteins named here, by UniProt entry; tags and fusion partners are left off. Residues count along the entry.
UniProt P42261, residues 19-906: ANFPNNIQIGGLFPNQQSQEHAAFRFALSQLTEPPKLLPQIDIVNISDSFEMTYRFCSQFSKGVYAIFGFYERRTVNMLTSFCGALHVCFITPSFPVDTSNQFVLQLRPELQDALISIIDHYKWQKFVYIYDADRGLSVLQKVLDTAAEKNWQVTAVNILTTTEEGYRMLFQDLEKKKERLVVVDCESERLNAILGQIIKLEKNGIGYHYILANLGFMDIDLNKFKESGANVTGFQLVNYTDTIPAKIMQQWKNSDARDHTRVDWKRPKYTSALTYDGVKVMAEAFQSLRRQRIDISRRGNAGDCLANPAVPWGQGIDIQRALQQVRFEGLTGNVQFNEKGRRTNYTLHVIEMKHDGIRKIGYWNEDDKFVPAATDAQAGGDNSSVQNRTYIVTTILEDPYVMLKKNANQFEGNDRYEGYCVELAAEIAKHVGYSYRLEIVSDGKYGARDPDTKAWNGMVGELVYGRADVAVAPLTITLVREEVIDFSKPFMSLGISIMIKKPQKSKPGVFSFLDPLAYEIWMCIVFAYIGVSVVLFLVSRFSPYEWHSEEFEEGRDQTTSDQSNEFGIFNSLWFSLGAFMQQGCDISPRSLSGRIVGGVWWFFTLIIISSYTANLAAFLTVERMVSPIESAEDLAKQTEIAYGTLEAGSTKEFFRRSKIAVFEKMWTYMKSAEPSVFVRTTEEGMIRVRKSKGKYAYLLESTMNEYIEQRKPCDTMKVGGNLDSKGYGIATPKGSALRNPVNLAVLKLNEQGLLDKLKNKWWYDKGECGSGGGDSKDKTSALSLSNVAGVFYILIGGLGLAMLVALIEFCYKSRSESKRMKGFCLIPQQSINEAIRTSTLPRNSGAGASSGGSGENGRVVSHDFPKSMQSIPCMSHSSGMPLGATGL
UniProt P23818, residues 19-907: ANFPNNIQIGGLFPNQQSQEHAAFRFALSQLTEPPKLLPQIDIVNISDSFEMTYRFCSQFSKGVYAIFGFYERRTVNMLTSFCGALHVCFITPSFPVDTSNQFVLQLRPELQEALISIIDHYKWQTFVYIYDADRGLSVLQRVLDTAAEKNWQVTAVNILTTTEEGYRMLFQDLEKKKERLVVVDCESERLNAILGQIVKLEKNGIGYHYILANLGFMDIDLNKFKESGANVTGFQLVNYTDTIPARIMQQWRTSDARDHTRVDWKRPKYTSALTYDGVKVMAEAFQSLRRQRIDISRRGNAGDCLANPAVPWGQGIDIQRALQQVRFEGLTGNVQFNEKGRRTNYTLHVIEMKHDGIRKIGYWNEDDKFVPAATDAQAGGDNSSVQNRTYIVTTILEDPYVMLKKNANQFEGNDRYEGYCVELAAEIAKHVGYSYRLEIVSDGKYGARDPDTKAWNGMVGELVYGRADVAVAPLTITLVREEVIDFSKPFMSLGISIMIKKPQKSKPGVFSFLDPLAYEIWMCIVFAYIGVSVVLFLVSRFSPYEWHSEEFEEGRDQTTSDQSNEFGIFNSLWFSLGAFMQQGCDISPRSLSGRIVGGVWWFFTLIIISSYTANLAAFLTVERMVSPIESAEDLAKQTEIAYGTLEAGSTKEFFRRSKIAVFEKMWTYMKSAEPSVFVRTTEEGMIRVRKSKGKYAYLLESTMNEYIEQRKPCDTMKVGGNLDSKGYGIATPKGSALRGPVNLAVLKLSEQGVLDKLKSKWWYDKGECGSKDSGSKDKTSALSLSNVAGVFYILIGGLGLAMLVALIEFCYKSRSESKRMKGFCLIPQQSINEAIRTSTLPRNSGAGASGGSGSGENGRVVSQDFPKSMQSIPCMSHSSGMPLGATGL

Changes are numbered by the printed parent chain. Names may count otherwise. These are yes or no findings as the source states them, for the method shown. Binding seen in cells or lysates may run through a third protein. Some entries that bind do so weakly or less than the wild type. For some of these results: Where a sequence is shown, tags or fusion partners need not be part of it.

The record followed here is publication PMC4463582.

B1: Flag-tagged wild type (WT) PRRT2 (proline-rich transmembrane protein 2), human, full-length (protein, UniProt Q7Z6L0 1-340)
chain: MAASSSEISEMKGVEESPKVPGEGPGHSEAETGPPQVLAGVPDQPEAPQPGPNTTAAPVDSGPKAGLAPETTETPAGASETAQATDLSLSPGGESKANCSPEDPCQETVSKPEVSKEATADQGSRLESAAPPEPAPEPAPQPDPRPDSQPTPKPALQPELPTQEDPTPEILSESVGEKQENGAVVPLQAGDGEEGPAPEPHSPPSKKSPPANGAPPRVLQQLVEEDRMRRAHSGHPGSPRGSLSRHPSSQLAGPGVEGGEGTQKPRDYIILAILSCFCPMWPVNIVAFAYAVMSRNSLQQGDVDGAQRLGRVAKLLSIVALVGGVLIIIASCVINLGVYK
Take B1: the binding result in test [1] is “binds”.

B2: Flag-tagged PRRT2 p.A287T (c.859G>A), human, missense mutant (protein, UniProt Q7Z6L0 1-340)
chain: B1 chain with A287T
In the case of B2, the binding entry in test [1] is “binds”.

B3: Myc-tagged Prrt2, mouse, full-length (protein, UniProt E9PUL5 1-346)
chain: MAASSSQVSEMKGVEDSSKTQTEGPRHSEEGLGPVQVVAEIPDQPEALQPGPGITAAPVDSGPKAELAPETTETPVETPETVQATDLSLNPEEGSKASPSPSPSEARQEPASKPDVNRETAAEEGSEPQSTAPPEPTSEPAFQINTQSDPQPTSQPPPKPPLQAEPPTQEDPTTEVLTESTGEKQENGAVVPLQAGDGEEGPAPQPHSPPSTKTPPANGAPPRVLQKLVEEDRIGRAHGGHPGSPRGSLSRHPSSQLAGPGVEGGEGTQKPRDYIILAILSCFCPMWPVNIVAFAYAVMSRNSLQQGDVDGAQRLGRVAKLLSIVALVGGVLIIIASCVINLGVYK
On to B3, for which the binding entry in test [2] is recorded as “binds”.

B4: Prrt2, endogenous in mouse brain extract (protein, UniProt E9PUL5 1-346)
chain: B3 chain
With B4, the binding entry in test [3] is “binds”.
